Some peptides are written in HELM: one residue between dots, names in brackets for other building blocks, links after the first $.
Test: peptide synthesis
Conditions: whole synthesis

**Q.** Which “purity (crude or final not stated)” value does the source give for PEPTIDE1{V.A.P.G.V.G}$$$$V2.0 here?
**A.** The value was 98.8%.

Reference: PMC10140934 (Molecules, 2023)
